Reference: the supplement of paper PMC10849652
This is one part of the list.

Sequences of proteins named here, by UniProt entry; tags and fusion partners are left off. A change or cut given only in a name is not applied to a line headed by its entry.
UniProt A5A3E0, whole entry, looked up: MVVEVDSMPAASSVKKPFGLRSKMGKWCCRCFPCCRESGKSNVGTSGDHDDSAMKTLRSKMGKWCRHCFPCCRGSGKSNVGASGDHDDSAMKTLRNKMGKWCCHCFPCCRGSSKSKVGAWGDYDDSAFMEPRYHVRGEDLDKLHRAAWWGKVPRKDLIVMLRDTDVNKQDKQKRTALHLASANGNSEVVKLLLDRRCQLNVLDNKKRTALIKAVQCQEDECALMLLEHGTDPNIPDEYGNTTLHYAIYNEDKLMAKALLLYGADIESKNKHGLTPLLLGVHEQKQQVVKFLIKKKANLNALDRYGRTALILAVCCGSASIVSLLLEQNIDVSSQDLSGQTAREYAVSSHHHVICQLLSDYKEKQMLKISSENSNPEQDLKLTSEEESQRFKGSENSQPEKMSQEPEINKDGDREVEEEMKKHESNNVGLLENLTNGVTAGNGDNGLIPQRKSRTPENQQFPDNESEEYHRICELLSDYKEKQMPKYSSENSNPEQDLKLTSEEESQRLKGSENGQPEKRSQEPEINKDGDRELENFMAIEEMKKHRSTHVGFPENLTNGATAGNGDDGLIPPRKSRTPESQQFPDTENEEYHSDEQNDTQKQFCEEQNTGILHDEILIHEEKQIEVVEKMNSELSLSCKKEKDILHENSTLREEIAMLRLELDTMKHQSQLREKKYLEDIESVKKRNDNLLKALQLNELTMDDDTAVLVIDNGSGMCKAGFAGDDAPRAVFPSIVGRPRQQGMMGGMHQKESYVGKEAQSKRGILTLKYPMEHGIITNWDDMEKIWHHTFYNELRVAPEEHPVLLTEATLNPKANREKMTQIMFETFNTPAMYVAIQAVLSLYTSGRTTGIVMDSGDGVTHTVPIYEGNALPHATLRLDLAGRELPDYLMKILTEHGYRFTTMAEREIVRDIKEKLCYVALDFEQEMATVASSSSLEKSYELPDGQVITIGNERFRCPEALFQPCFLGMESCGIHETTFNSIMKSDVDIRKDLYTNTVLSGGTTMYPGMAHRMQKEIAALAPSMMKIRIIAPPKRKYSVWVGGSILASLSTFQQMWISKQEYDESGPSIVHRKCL
UniProt Q9H1D9: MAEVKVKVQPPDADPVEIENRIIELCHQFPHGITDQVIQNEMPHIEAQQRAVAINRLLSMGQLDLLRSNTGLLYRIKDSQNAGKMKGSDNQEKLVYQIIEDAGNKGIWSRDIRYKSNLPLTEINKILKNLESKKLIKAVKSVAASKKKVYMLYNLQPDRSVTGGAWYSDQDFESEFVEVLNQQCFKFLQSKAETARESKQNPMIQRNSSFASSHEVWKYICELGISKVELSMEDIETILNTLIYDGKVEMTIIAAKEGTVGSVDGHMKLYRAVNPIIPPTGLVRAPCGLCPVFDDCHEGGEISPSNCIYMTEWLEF
UniProt Q13794: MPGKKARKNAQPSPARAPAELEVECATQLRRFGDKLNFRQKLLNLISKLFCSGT
UniProt Q9Y2G5: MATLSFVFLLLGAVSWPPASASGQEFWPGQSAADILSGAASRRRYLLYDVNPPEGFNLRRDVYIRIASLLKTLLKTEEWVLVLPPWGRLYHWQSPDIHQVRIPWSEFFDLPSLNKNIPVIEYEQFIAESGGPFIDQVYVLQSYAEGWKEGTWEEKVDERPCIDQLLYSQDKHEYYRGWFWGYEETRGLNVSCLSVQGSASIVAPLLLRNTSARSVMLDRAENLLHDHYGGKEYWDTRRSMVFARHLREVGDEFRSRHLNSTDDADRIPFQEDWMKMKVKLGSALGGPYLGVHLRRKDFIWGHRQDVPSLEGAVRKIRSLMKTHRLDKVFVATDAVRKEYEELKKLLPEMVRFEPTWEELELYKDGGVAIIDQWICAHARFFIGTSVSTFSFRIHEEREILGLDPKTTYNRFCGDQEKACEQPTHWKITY
UniProt Q6P1K2: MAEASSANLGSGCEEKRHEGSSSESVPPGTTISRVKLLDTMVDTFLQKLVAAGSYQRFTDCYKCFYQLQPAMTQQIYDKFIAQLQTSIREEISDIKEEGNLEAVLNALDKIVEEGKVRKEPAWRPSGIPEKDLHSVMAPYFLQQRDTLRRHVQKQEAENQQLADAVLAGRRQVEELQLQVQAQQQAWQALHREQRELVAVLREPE
UniProt O95707: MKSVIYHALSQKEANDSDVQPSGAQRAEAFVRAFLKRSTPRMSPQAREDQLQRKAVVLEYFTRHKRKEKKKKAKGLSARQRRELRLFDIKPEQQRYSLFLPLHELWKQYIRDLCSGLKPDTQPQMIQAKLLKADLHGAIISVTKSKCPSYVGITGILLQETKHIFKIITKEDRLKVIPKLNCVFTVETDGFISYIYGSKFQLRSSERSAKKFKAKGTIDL
UniProt O94903: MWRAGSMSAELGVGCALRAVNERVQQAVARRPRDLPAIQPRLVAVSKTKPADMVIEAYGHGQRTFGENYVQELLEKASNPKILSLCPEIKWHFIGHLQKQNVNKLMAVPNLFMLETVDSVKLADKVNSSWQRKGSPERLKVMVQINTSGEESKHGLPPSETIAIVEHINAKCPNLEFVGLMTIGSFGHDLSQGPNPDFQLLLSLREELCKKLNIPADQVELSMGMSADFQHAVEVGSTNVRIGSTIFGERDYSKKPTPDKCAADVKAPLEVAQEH
UniProt P0DPB6, whole entry, looked up: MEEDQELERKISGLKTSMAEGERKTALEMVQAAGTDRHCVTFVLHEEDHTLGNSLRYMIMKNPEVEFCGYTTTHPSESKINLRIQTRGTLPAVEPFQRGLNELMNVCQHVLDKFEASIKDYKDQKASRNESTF
UniProt Q13136: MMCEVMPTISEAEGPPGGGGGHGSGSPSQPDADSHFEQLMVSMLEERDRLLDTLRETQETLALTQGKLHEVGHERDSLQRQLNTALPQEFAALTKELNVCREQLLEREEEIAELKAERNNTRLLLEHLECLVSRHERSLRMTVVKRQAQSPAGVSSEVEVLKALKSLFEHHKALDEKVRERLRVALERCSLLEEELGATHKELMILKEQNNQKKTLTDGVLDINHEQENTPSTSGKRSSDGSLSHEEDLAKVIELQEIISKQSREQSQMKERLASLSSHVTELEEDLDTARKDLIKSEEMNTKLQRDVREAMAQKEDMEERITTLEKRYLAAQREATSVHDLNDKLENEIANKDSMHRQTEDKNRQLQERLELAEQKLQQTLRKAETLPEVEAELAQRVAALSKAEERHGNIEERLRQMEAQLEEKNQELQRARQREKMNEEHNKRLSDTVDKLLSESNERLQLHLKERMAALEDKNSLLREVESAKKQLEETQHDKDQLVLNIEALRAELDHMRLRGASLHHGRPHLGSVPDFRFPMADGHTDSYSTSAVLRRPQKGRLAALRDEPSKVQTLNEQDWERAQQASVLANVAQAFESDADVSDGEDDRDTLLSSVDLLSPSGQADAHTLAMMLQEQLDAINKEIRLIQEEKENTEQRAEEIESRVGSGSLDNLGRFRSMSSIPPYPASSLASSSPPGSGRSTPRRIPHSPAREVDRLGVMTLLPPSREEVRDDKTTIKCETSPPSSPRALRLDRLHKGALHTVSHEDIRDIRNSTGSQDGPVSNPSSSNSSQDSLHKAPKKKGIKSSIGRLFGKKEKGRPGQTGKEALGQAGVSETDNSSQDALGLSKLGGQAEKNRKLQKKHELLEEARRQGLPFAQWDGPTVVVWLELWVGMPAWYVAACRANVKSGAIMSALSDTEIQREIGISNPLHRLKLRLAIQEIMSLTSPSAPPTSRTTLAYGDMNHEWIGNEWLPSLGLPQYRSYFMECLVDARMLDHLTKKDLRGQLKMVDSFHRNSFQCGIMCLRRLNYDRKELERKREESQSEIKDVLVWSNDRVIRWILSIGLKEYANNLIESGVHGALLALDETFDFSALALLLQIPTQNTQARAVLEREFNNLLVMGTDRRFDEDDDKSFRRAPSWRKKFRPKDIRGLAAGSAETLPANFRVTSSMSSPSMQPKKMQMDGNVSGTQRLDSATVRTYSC
UniProt Q06203, whole entry, looked up: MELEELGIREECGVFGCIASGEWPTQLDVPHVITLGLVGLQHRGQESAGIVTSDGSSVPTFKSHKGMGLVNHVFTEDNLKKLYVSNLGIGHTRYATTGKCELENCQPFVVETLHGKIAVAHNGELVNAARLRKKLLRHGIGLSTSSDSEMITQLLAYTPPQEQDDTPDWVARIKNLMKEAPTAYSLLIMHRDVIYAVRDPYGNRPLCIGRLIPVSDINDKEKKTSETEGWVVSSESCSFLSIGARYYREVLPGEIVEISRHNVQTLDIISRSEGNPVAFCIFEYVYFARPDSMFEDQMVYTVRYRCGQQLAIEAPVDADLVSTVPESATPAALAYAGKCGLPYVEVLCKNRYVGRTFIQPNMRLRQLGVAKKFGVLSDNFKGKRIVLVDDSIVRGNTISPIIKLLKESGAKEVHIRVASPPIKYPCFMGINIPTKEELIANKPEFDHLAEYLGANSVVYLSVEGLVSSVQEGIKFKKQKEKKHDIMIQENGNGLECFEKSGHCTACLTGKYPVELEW
UniProt Q15181: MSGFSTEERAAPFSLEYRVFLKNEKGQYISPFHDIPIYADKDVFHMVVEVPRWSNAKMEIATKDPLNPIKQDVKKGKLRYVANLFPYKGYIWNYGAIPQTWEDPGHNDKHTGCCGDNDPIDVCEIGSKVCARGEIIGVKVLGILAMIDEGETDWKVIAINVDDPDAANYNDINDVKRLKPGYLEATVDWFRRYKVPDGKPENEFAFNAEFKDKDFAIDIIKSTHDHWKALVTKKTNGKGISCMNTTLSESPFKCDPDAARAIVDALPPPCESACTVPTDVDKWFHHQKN
UniProt Q9NRF9: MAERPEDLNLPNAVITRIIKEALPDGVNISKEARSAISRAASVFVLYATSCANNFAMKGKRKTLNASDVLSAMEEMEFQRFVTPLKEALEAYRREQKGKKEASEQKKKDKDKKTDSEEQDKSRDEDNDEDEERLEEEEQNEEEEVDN
UniProt Q8N490: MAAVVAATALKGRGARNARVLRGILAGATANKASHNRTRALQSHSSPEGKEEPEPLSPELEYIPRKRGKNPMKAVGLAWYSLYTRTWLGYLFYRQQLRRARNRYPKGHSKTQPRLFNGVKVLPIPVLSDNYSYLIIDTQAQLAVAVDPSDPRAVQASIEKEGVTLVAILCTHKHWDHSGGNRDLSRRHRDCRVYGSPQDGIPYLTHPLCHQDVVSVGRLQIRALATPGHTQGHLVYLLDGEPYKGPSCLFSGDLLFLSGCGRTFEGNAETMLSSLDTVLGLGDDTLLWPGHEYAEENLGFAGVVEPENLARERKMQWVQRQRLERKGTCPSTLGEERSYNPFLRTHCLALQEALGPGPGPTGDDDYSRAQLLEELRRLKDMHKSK
UniProt Q9BY77: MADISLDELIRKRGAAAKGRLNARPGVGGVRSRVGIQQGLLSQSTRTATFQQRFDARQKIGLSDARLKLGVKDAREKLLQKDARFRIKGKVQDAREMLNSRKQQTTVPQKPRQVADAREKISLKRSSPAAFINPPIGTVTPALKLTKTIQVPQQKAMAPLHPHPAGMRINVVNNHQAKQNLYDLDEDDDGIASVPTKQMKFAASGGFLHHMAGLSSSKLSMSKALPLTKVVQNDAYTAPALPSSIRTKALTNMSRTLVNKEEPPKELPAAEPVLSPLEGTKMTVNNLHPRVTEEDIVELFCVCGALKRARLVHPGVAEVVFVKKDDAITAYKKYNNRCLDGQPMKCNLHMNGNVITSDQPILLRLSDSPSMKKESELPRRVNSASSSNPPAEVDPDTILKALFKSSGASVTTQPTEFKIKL
UniProt Q9UNP9: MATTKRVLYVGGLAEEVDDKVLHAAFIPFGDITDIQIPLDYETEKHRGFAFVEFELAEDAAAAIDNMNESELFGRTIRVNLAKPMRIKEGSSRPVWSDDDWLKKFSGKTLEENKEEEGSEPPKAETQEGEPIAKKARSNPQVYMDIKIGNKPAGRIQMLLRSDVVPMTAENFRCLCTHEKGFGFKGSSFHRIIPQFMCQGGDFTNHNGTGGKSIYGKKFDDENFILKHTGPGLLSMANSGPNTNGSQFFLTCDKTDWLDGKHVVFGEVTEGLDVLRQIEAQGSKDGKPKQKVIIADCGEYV
UniProt Q9BX97: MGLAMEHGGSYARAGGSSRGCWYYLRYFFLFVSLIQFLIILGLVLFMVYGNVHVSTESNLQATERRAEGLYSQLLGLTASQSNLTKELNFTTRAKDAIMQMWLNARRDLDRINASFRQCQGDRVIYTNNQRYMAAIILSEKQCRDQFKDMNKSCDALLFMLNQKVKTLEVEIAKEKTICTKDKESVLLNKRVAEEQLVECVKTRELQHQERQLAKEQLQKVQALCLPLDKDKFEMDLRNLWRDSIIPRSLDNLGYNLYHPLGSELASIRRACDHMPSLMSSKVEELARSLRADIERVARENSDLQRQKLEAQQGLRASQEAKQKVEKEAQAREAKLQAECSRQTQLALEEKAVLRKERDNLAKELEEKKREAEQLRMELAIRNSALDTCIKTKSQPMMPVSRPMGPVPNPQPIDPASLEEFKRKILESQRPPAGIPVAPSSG
UniProt O75817: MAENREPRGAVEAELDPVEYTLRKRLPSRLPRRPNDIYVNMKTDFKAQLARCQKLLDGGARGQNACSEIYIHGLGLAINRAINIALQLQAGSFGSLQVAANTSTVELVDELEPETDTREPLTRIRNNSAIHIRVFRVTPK

Experiments:
Test in all cases: log2 fold change, soluble protein after heating vs DMSO (PISA); higher = thermal stabilisation; K562 cells, 10 uM, 30 min; active = over 0.2 and 3.5 SD of the protein, either way, in both replicates (recomputed)
saracatinib = compound: CN1CCN(CCOc2cc(OC3CCOCC3)c3c(Nc4c(Cl)ccc5c4OCO5)ncnc3c2)CC1 [saracatinib]
Outline: (§1)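 For each measurement, 10 μM compound was applied for 30 min to K562 cells at 2×10^6 cells/mL. Aliquots were heated for 3 min across 48°C-58°C, pooled, and extracted in PBS with 0.5% NP-40 at 4°C; the supernatant after 21,000xg for 90 min was soluble protein. This was quantified by TMTpro 16plex LC-MS/MS with channel sums equalised, and thermal stability was reported relative to control samples from duplicates, on a log2 fold-change scale.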

sotrastaurin = compound: CN1CCN(c2nc(C3=C(c4c[nH]c5ccccc45)C(=O)NC3=O)c3ccccc3n2)CC1 [sotrastaurin]
Outline: as §1

alvocidib = compound: CN1CC[C@H](c2c(O)cc(O)c3c(=O)cc(-c4ccccc4Cl)oc23)[C@H](O)C1 [alvocidib]
Outline: as §1

Tubastatin A = compound: CN1CCc2c(c3ccccc3n2Cc2ccc(C(=O)NO)cc2)C1 [Tubastatin A]
Outline: as §1

[1] = compound: CNC(=O)C1=CC=CC=C1NC2=NC(=NC=C2Cl)NC3=C(C=C(C=C3)N4CCOCC4)OC
Outline: as §1

defactinib = compound: CNC(=O)c1ccc(Nc2ncc(C(F)(F)F)c(NCc3nccnc3N(C)S(C)(=O)=O)n2)cc1 [defactinib]
Outline: as §1

rucaparib = compound: CNCc1ccc(-c2[nH]c3cc(F)cc4c3c2CCNC4=O)cc1 [rucaparib]
Outline: as §1

[2] = compound: CNc1nc(-c2ccc3c(N)n[nH]c3c2)cc(N2C[C@@H](C(=O)NC3CCCCC3)CC[C@H]2C)n1
Outline: as §1

encorafenib = compound: COC(=O)N[C@@H](C)CNc1nccc(-c2cn(C(C)C)nc2-c2cc(Cl)cc(NS(C)(=O)=O)c2F)n1 [encorafenib]
Outline: as §1

[3] = compound: COC(=O)[C@H](CCSC)NC(=O)C1=C(C=C(C=C1)NC[C@H](CS)N)C2=CC=CC=C2
Outline: as §1

Measured: log2 fold change

POTEF (UniProt A5A3E0)
inactive: saracatinib 0.086 | sotrastaurin 0.034 | alvocidib 0.003 | Tubastatin A 0.034 | [1] -0.04 | defactinib -0.015 | rucaparib -0.02 | [2] -0.055 | encorafenib -0.006 | [3] 0.065

POLR3F (UniProt Q9H1D9)
inactive: saracatinib 0.069 | sotrastaurin 0.038 | alvocidib -0.03 | Tubastatin A 0.028 | [1] -0.034 | defactinib -0.093 | rucaparib -0.032 | [2] -0.033 | encorafenib 0.023 | [3] 0.018

PMAIP1 (UniProt Q13794)
inactive: saracatinib -0.076 | sotrastaurin -0.01 | alvocidib -0.027 | Tubastatin A 0.284 | [1] -0.029 | defactinib 0.05 | rucaparib -0.113 | [2] -0.006 | encorafenib 0.147 | [3] -0.014

PNPT1 (UniProt Q8TCS8)
inactive: saracatinib -0.049 | sotrastaurin -0.035 | alvocidib -0.123 | Tubastatin A 0.024 | [1] 0.012 | defactinib -0.072 | rucaparib 0.044 | [2] 0.054 | encorafenib 0.04 | [3] -0.033

POFUT2 (UniProt Q9Y2G5)
inactive: saracatinib -0.083 | sotrastaurin -0.04 | alvocidib 0.021 | Tubastatin A 0.057 | [1] 0.019 | defactinib 0.034 | rucaparib 0.072 | [2] -0.003 | encorafenib 0.08 | [3] -0.016

POGLUT2 (UniProt Q6UW63)
inactive: saracatinib -0.067 | sotrastaurin 0.015 | alvocidib -0.002 | Tubastatin A -0.011 | [1] 0.007 | defactinib 0.031 | rucaparib -0.007 | [2] -0.027 | encorafenib 0.058 | [3] -0.035

PMF1 (UniProt Q6P1K2)
inactive: saracatinib -0.1 | sotrastaurin -0.101 | alvocidib -0.111 | Tubastatin A 0.013 | [1] -0.015 | defactinib -0.002 | rucaparib 0.004 | [2] 0.012 | encorafenib -0.008 | [3] 0.036

POP4 (UniProt O95707)
inactive: saracatinib -0.021 | sotrastaurin -0.05 | alvocidib -0.002 | Tubastatin A 0.01 | [1] -0.01 | defactinib 0.039 | rucaparib 0.169 | [2] 0.026 | encorafenib 0.079 | [3] -0.005

POLR2B (UniProt P30876)
inactive: saracatinib -0.071 | sotrastaurin -0.032 | Tubastatin A -0.01 | [1] -0.016 | defactinib 0.173 | rucaparib 0.174 | [2] -0.012 | encorafenib 0.056 | [3] -0.044
active: alvocidib 0.254

PPIP5K2 (UniProt O43314)
inactive: saracatinib 0.015 | sotrastaurin 0.016 | alvocidib -0.031 | Tubastatin A -0.019 | [1] 0.013 | defactinib -0.008 | rucaparib -0.077 | [2] -0.05 | encorafenib -0.02 | [3] 0.028

POLR3E (UniProt Q9NVU0)
inactive: saracatinib -0.112 | sotrastaurin -0.217 | alvocidib -0.029 | Tubastatin A -0.023 | [1] 0.052 | defactinib -0.057 | rucaparib 0.198 | [2] 0.027 | encorafenib 0.096 | [3] -0.104

Retrieved one by one from above, 2 records:
POP4 (UniProt O95707)
inactive: saracatinib -0.021 | sotrastaurin -0.05 | alvocidib -0.002 | Tubastatin A 0.01 | [1] -0.01 | defactinib 0.039 | rucaparib 0.169 | [2] 0.026 | encorafenib 0.079 | [3] -0.005

POLR3E (UniProt Q9NVU0)
inactive: saracatinib -0.112 | sotrastaurin -0.217 | alvocidib -0.029 | Tubastatin A -0.023 | [1] 0.052 | defactinib -0.057 | rucaparib 0.198 | [2] 0.027 | encorafenib 0.096 | [3] -0.104

Next part:

PLPBP (UniProt O94903)
inactive: saracatinib -0.088 | sotrastaurin -0.046 | alvocidib -0.134 | Tubastatin A 0.117 | [1] 0.225 | defactinib -0.142 | rucaparib 0.133 | [2] -0.056 | encorafenib 0.003 | [3] -0.028

POLDIP2 (UniProt Q9Y2S7)
inactive: saracatinib 0.029 | sotrastaurin 0.013 | alvocidib -0.049 | Tubastatin A 0.011 | [1] -0.019 | defactinib -0.048 | rucaparib 0.04 | [2] -0.01 | encorafenib -0.015 | [3] 0

POLR1D (UniProt P0DPB6)
inactive: saracatinib -0.089 | sotrastaurin -0.221 | alvocidib 0.19 | Tubastatin A 0.091 | [1] 0.011 | defactinib 0.02 | rucaparib 0.257 | [2] -0.052 | encorafenib -0.03 | [3] -0.045

PPFIA1 (UniProt Q13136)
inactive: saracatinib 0.024 | sotrastaurin -0.028 | alvocidib -0.014 | Tubastatin A 0.102 | [1] 0.005 | defactinib -0.003 | rucaparib -0.047 | [2] 0.002 | encorafenib 0.053 | [3] -0.005

PPAT (UniProt Q06203)
inactive: saracatinib 0.022 | sotrastaurin 0.024 | alvocidib -0.015 | Tubastatin A -0.005 | [1] 0.031 | defactinib -0.013 | rucaparib -0.051 | [2] -0.032 | encorafenib 0.001 | [3] -0.007

PPA1 (UniProt Q15181)
inactive: saracatinib -0.03 | sotrastaurin 0.011 | alvocidib -0.044 | Tubastatin A 0.013 | [1] 0.009 | defactinib 0.003 | rucaparib -0.096 | [2] 0 | encorafenib 0.008 | [3] -0.003

POLR2H (UniProt P52434)
inactive: saracatinib -0.026 | sotrastaurin -0.019 | alvocidib 0.053 | Tubastatin A -0.021 | [1] -0.063 | defactinib 0.029 | rucaparib 0.048 | [2] 0.04 | encorafenib -0.016 | [3] -0.089

POLE3 (UniProt Q9NRF9)
inactive: saracatinib -0.03 | sotrastaurin 0.062 | alvocidib -0.002 | Tubastatin A 0.012 | [1] -0.003 | defactinib -0.036 | rucaparib -0.034 | [2] -0.021 | encorafenib -0.061 | [3] -0.059

PNKD isoform 3 (UniProt Q8N490)
inactive: saracatinib -0.079 | sotrastaurin 0.05 | alvocidib -0.061 | Tubastatin A 0.133 | [1] -0.02 | defactinib 0.011 | rucaparib 0.095 | [2] -0.046 | encorafenib -0.009 | [3] 0.025

POLDIP3 (UniProt Q9BY77)
inactive: saracatinib -0.003 | sotrastaurin -0.005 | alvocidib 0.122 | Tubastatin A -0.007 | [1] 0.03 | defactinib 0.07 | rucaparib -0.057 | [2] 0.002 | encorafenib 0.011 | [3] 0.061

POGLUT3 (UniProt Q7Z4H8)
inactive: saracatinib -0.039 | sotrastaurin -0.027 | alvocidib -0.015 | Tubastatin A 0.046 | [1] 0.043 | defactinib 0.016 | rucaparib 0.033 | [2] 0.013 | encorafenib 0.076 | [3] -0.005

PPIE (UniProt Q9UNP9)
inactive: saracatinib 0.059 | sotrastaurin 0.046 | alvocidib 0.048 | Tubastatin A -0.027 | [1] 0.003 | defactinib 0.019 | rucaparib -0.05 | [2] -0.021 | encorafenib 0.062 | [3] 0.073

PLVAP (UniProt Q9BX97)
inactive: saracatinib 0.009 | sotrastaurin 0.064 | alvocidib -0.095 | Tubastatin A -0.071 | [1] 0.102 | defactinib 0.091 | rucaparib -0.111 | [2] -0.004 | encorafenib 0 | [3] -0.051

POP5 (UniProt Q969H6)
inactive: saracatinib 0.026 | sotrastaurin 0.117 | alvocidib 0.014 | Tubastatin A -0.029 | [1] -0.024 | defactinib -0.001 | rucaparib -0.01 | [2] 0.001 | encorafenib 0.072 | [3] 0.023

PNP (UniProt P00491)
inactive: saracatinib 0.054 | sotrastaurin 0.035 | alvocidib 0.001 | Tubastatin A -0.009 | [1] -0.034 | defactinib 0 | rucaparib -0.032 | [2] -0.028 | encorafenib -0.023 | [3] 0.016

POP7 (UniProt O75817)
inactive: saracatinib -0.022 | sotrastaurin 0.085 | alvocidib -0.053 | Tubastatin A 0.074 | [1] -0.092 | defactinib -0.016 | rucaparib 0.197 | [2] -0.016 | encorafenib 0.197 | [3] 0.027
